Results published in US20110217715A1, “GENE EXPRESSION IN DUCHENNE MUSCULAR DYSTROPHY” (CHILDREN'S HOSPITAL MEDICAL CENTER, priority 2008, published 2011).
This continues a long series; more values of the same kind are listed elsewhere.

System: mRNA expression in peripheral blood of individuals with DMD
Test: Whole-blood gene expression microarray: DMD administered deflazacort vs DMD administered prednisone
Assay type: in vivo, human
Procedure: Fifteen ml of blood was collected from each individual into 6 PAXgene® Vacutainer® tubes (PreAnalytiX, Germany) by antecubital fossa venipuncture. PAXgene® tubes contain a proprietary reagent that immediately stabilizes RNA, thus reducing RNA degradation and minimizing gene expression changes following phlebotomy. The tubes were then inverted 20 times, then remained undisturbed for 2 h at room temperature (about 19° C. to about 22° C.), and then stored at -70° C. until processed. Total RNA was isolated using the Paxgene® blood RNA kit (PreAnalytiX, Germany) according to the manufacturers instructions. The RNA isolated is from all cells in whole blood. Typical yields of total RNA isolated from about 7.5 ml of human whole blood were between 10 μg RNA and 40 μg RNA. RNA quality and purity was analyzed by spectrophotometry using the Nanodrop ND-1000, and RNA integrity was analyzed using the Agilent 2100 Bioanalyzer. […] Sample labeling, hybridization to chips, and image scanning were performed using standard Affymetrix protocols. For each whole blood sample from control individuals and individuals with DMD, total RNA was labeled using the One-Cycle Target Labeling protocol and hybridized to the arrays. […] Double-stranded cDNA synthesis, biotin-labeled cRNA synthesis, and cRNA fragmentation were performed according to the Affymetrix GeneChip Eukaryotic Expression Analysis protocol. The labeled, fragmented cRNA (15 μg) was hybridized at 45° C. overnight. After hybridization, the array was washed and stained. The arrays were scanned with an argon-ion laser at λ=570 nm, with a resolution of 3 μm/pixel (Affymetrix, Inc.). After scanning the array, the raw probe level values for each probe were saved in Affymetrix.cel files. […] Statistical analyses, including t-test analyses, unsupervised hierarchical clustering, and principal component analyses were conducted using Genespring 7.2 software ([…]® 7, Silicon Genetics, Redwood City Calif.). […] Corrections for multiple comparisons used a Benjamini-Hochberg False Discovery Rate (FDR) of 0.05, disclosed in Tang et al., J Cereb Blood Flow Metab 26 (2006) 1089, which is expressly incorporated by reference herein in its entirety. […] Sample processing and array hybridization, probe-level data analysis, and statistical analysis were identical to Example 1.

## CC(=O)OCC(=O)[C@@]12N=C(C)O[C@@H]1C[C@H]1[C@@H]3CCC4=CC(=O)C=C[C@]4(C)[C@H]3[C@@H](O)C[C@@]12C [deflazacort]
Gene HBLD2, Genbank NM_030940, Nucleic Acid No. 2314
  p-value: 0.0311
Gene KLF9, Genbank NM_001206, Nucleic Acid No. 2315
  p-value: 0.0319
Gene LOC51326, Genbank AF119889, Nucleic Acid No. 2316
  p-value: 0.0429
Gene MLC1SA, Genbank NM_002475, Nucleic Acid No. 2317
  p-value: 0.0202
Gene MTP18, Genbank AF060924, Nucleic Acid No. 2318
  p-value: 0.0129
Gene NUDT4, NUDT4P1, Genbank AF191653, Nucleic Acid No. 1738
  p-value: 0.0352
Gene OSBP2, Genbank BE501253, Nucleic Acid No. 2319
  p-value: 0.0334
Gene RAB2B, Genbank AA531016, Nucleic Acid No. 2320
  p-value: 0.0428
Gene RARA, Genbank U41742, Nucleic Acid No. 2321
  p-value: 0.0198
Gene SIGLEC7, Genbank NM_016543, Nucleic Acid No. 2210
  p-value: 0.0193
Gene SIGLEC9, Genbank AF247180, Nucleic Acid No. 2211
  p-value: 0.0364
Gene SIRPB1, Genbank NM_006065, Nucleic Acid No. 2212
  p-value: 0.0432
Gene SLC7A7, Genbank NM_003982, Nucleic Acid No. 2214
  p-value: 0.0242
Gene SLC25A36, Genbank AL136803, Nucleic Acid No. 56
  p-value: 0.0384
Gene SLC33A1, Genbank BC029450, Nucleic Acid No. 2213
  p-value: 0.0407
Gene SLIC1, Genbank AI081246, Nucleic Acid No. 2215
  p-value: 0.0159
Gene SMARCA4, Genbank D26156, Nucleic Acid No. 2216
  p-value: 0.0291
Gene SMC5L1, Genbank BC035661, Nucleic Acid No. 2217
  p-value: 0.0179
Gene SND1, Genbank AI374686, Nucleic Acid No. 2218
  p-value: 0.0162
Gene SNX1, Genbank AK098001, Nucleic Acid No. 2219
  p-value: 0.0426
Gene SOD2, Genbank W46388, Nucleic Acid No. 2220
  p-value: 0.0239
Gene SP2, Genbank D28588, Nucleic Acid No. 2222
  p-value: 0.0386
Gene SP3, Genbank N23846, Nucleic Acid No. 2223
  p-value: 0.0499
Gene SP110, Genbank AF280094, Nucleic Acid No. 2221
  p-value: 0.0401
Gene SPAG9, Genbank BC007524, Nucleic Acid No. 2224
  p-value: 0.0493
Gene ST8SIA4, Genbank AA352113, Nucleic Acid No. 1171
  p-value: 0.0441
Gene STAT3, Genbank AA634272, Nucleic Acid No. 2226
  p-value: 0.0328
Gene STAT3, Genbank AI139252, Nucleic Acid No. 2227
  p-value: 0.0405
Gene STAT3, Genbank BC000627, Nucleic Acid No. 2225
  p-value: 0.025
Gene STEAP4, Genbank AA650281, Nucleic Acid No. 2228
  p-value: 0.0195
Gene SULT1A1, Genbank NM_001055, Nucleic Acid No. 2229
  p-value: 0.0233
Gene SULT1A3, SULT1A4, Genbank U08032, Nucleic Acid No. 2230
  p-value: 0.0234
Gene SVIL, Genbank BC022883, Nucleic Acid No. 2231
  p-value: 0.0273
Gene SYK, Genbank AW467357, Nucleic Acid No. 2232
  p-value: 0.0336
Gene TAL1, Genbank AW300901, Nucleic Acid No. 2322
  p-value: 0.0248
Gene TAX1BP3, Genbank AF234997, Nucleic Acid No. 2233
  p-value: 0.027
Gene TBC1D22A, Genbank AI597838, Nucleic Acid No. 2234
  p-value: 0.0353
Gene TGFB1, Genbank BC000125, Nucleic Acid No. 2235
  p-value: 0.0114
Gene TGFBR3, Genbank NM_003243, Nucleic Acid No. 2236
  p-value: 0.0469
Gene TGOLN2, Genbank NM_006464, Nucleic Acid No. 1425
  p-value: 0.00127
Gene THRAP2, Genbank AK025348, Nucleic Acid No. 2237
  p-value: 0.04
Gene TIAF1, MYO18A, Genbank NM_004740, Nucleic Acid No. 2238
  p-value: 0.0229
Gene TJP2, Genbank NM_004817, Nucleic Acid No. 675
  p-value: 0.0455
Gene TLE3, Genbank AI567426, Nucleic Acid No. 2239
  p-value: 0.0127
Gene TLE3, Genbank NM_005078, Nucleic Acid No. 2240
  p-value: 0.0216
Gene TLR1, Genbank AL050262, Nucleic Acid No. 2241
  p-value: 0.0328
Gene TMCC1, Genbank AB018322, Nucleic Acid No. 1003
  p-value: 0.0328
Gene TMCC1, Genbank AI934469, Nucleic Acid No. 2242
  p-value: 0.0345
Gene TMEM16F, Genbank AL041280, Nucleic Acid No. 2243
  p-value: 0.0268
Gene TMPRSS6, Genbank AL022314, Nucleic Acid No. 2323
  p-value: 0.0304
Gene TNFSF10, Genbank NM_003810, Nucleic Acid No. 2244
  p-value: 0.0148
Gene TNFSF10, Genbank U57059, Nucleic Acid No. 2245
  p-value: 0.0367
Gene TNFSF13, TNFSF12-TNFSF13, Genbank AF114011, Nucleic Acid No. 2247
  p-value: 0.0208
Gene TNFSF13, TNFSF12-TNFSF13, Genbank AF114013, Nucleic Acid No. 2246
  p-value: 0.012
Gene TNFSF13B, Genbank AF134715, Nucleic Acid No. 2248
  p-value: 0.0196
Gene TNRC5, Genbank AF161347, Nucleic Acid No. 2249
  p-value: 0.00226
Gene TPARL, Genbank AW665624, Nucleic Acid No. 939
  p-value: 0.0263
Gene TPP1, Genbank BG231932, Nucleic Acid No. 2250
  p-value: 0.00621
Gene TPP1, Genbank NM_000391, Nucleic Acid No. 920
  p-value: 0.000155
Gene TRIM8, Genbank NM_030912, Nucleic Acid No. 2252
  p-value: 0.00322
Gene TRIM38, Genbank AI809831, Nucleic Acid No. 2251
  p-value: 0.018
Gene UBE2D3, Genbank AI239832, Nucleic Acid No. 2253
  p-value: 0.0322
Gene UBE2J1, Genbank N64079, Nucleic Acid No. 2254
  p-value: 0.0247
Gene UBE3B, Genbank AK022019, Nucleic Acid No. 2255
  p-value: 0.0134
Gene USP15, Genbank AU156202, Nucleic Acid No. 2256
  p-value: 0.0357
Gene VCL, Genbank NM_014000, Nucleic Acid No. 2257
  p-value: 0.000443
Gene VPS37C, Genbank BM452172, Nucleic Acid No. 2258
  p-value: 0.00954
Gene VPS41, Genbank AF135593, Nucleic Acid No. 342
  p-value: 0.0126
Gene WARS, Genbank NM_004184, Nucleic Acid No. 2259
  p-value: 0.0139
Gene WASL, Genbank AK025323, Nucleic Acid No. 2260
  p-value: 0.0268
Gene WDR40A, Genbank AL555107, Nucleic Acid No. 2324
  p-value: 0.0469
Gene WIRE, Genbank AK026913, Nucleic Acid No. 2261
  p-value: 0.00508
Gene WNK1, Genbank AL049278, Nucleic Acid No. 2262
  p-value: 0.0169
Gene XPO1, Genbank BC041658, Nucleic Acid No. 2263
  p-value: 0.0377
Gene YOD1, Genbank AF090896, Nucleic Acid No. 2325
  p-value: 0.0189
Gene YWHAH, Genbank NM_003405, Nucleic Acid No. 1807
  p-value: 0.018
Gene ZAK, Genbank AW069181, Nucleic Acid No. 2264
  p-value: 0.00126
Gene ZCCHC2, Genbank AU147903, Nucleic Acid No. 2266
  p-value: 0.0424
Gene ZCCHC2, Genbank BE676543, Nucleic Acid No. 2265
  p-value: 0.0109
Gene ZCCHC2, Genbank NM_017742, Nucleic Acid No. 677
  p-value: 0.022
Gene ZCCHC6, Genbank AA584428, Nucleic Acid No. 2267
  p-value: 0.0477
Gene ZFHX1B, Genbank AF086037, Nucleic Acid No. 2268
  p-value: 0.0124
Gene ZFHX1B, Genbank AI623184, Nucleic Acid No. 2269
  p-value: 0.0233
Gene ZFP36L1, Genbank BE620915, Nucleic Acid No. 2270
  p-value: 0.0409
Gene ZNF160, Genbank AA701249, Nucleic Acid No. 1369
  p-value: 0.028
Gene ZNF264, Genbank NM_003417, Nucleic Acid No. 2271
  p-value: 0.00262
Gene ZNF595, Genbank AI580142, Nucleic Acid No. 2326
  p-value: 0.00776
Gene ZNF626, Genbank NM_145297, Nucleic Acid No. 2327
  p-value: 0.0179
Gene ZNF652, Genbank NM_014897, Nucleic Acid No. 2272
  p-value: 0.0417
Gene ZYG11B, Genbank AV701229, Nucleic Acid No. 2273
  p-value: 0.00211
Gene ZYG11B, Genbank N21008, Nucleic Acid No. 2274
  p-value: 0.0262
Gene ZYX, Genbank BC002323, Nucleic Acid No. 2275
  p-value: 0.0212
pp9099, NM_025201, nucleic acid 2169, vs. prednisone
  p-value: 0.0311
